No constants are given. Whether binding was seen depends on the method and setting. Some results given as binding are weak or reduced against the parent protein; the word gives no strength.
Molecular target: endogenous mouse plasma Osteopontin (mouse) (UniProt P10923)
Assay: in vivo complex formation: MDA-MB-435-Hal/Luc tumour-bearing SCID BALB/c mice dosed i.v. at 25 mg/kg; plasma treated overnight with Protein G magnetic beads to remove IgG-bound OPN; free versus total mouse OPN by commercial ELISA (R&D Systems)

The chains behind the UniProt entries cited, without tags or fusion partners. Residues count along the entry.
UniProt P10923, residues 17-294: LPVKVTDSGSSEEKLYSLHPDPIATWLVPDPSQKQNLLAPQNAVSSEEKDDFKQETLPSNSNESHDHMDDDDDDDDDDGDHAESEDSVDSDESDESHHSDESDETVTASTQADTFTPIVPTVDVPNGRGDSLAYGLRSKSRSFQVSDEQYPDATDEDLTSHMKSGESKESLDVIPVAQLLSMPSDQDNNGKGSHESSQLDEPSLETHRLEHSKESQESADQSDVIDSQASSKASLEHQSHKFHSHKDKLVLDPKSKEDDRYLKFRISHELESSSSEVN

Binder	binding
MOR-6990 (full length human IgG2) (antibody, V domains shown) VH: QVQLVESGGGLVQPGGSLRLSCAASGFTFSNYVMHWVRQAPGKGLEWVSSIFGSGSDTYYADSVKGRFTISRDNSKNTLYLQMNSLRAEDTAVYYCARSASSGFGFAGYGIDSWGQGTLVTVSS VL: DIELTQPPSVSVAPGQTARISCSGDSLRYYYAHWYQQKPGQAPVLVIYDDNKRPSGIPERFSGSNSGNTATLTISGTQAEDEADYYCQSWDLFHSSVFGGGTKLTVLG	binds
MOR-6993 (full length human IgG2) (antibody, V domains shown) VH: QVQLVESGGGLVQPGGSLRLSCAASGFTFTTSSMHWVRQAPGKGLEWVSRISSHGSNTYYADSVKGRFTISRDNSKNTLYLQMNSLRAEDTAVYYCARDMYRGVYGFALWGQGTLVTVSS VL: DIELTQPPSVSVAPGQTARISCSGDAIRNYYVHWYQQKPGQAPVLVIYEDSDRPSGIPERFSGSNSGNTATLTISGTQAEDEADYYCQSYDKSNVVFGGGTKLTVLG	binds
